{"source": "paper PMC10364322", "about": "“Evaluation of chronic drug-induced electrophysiological and cytotoxic effects using human-induced pluripotent stem cell-derived cardiomyocytes (hiPSC-CMs)” (Frontiers in Pharmacology, 2023)", "origin": "cited, not measured here", "settings": "free therapeutic Cmax in humans; ref FDA-approved drug packages, PharmaPendium; cited from earlier work", "data": [{"compound": "O=C(O)COCCN1CCN(C(c2ccccc2)c2ccc(Cl)cc2)CC1", "note": "(stereo not shown) [Cetirizine]", "values": [{"measurement": "Free Cmax", "result": 100, "unit": "nM"}]}]}
